Consider three substances from publication PMC8578637.

Amino acid sequences for entries named in this document (tags omitted).
UniProt Q8NFD5: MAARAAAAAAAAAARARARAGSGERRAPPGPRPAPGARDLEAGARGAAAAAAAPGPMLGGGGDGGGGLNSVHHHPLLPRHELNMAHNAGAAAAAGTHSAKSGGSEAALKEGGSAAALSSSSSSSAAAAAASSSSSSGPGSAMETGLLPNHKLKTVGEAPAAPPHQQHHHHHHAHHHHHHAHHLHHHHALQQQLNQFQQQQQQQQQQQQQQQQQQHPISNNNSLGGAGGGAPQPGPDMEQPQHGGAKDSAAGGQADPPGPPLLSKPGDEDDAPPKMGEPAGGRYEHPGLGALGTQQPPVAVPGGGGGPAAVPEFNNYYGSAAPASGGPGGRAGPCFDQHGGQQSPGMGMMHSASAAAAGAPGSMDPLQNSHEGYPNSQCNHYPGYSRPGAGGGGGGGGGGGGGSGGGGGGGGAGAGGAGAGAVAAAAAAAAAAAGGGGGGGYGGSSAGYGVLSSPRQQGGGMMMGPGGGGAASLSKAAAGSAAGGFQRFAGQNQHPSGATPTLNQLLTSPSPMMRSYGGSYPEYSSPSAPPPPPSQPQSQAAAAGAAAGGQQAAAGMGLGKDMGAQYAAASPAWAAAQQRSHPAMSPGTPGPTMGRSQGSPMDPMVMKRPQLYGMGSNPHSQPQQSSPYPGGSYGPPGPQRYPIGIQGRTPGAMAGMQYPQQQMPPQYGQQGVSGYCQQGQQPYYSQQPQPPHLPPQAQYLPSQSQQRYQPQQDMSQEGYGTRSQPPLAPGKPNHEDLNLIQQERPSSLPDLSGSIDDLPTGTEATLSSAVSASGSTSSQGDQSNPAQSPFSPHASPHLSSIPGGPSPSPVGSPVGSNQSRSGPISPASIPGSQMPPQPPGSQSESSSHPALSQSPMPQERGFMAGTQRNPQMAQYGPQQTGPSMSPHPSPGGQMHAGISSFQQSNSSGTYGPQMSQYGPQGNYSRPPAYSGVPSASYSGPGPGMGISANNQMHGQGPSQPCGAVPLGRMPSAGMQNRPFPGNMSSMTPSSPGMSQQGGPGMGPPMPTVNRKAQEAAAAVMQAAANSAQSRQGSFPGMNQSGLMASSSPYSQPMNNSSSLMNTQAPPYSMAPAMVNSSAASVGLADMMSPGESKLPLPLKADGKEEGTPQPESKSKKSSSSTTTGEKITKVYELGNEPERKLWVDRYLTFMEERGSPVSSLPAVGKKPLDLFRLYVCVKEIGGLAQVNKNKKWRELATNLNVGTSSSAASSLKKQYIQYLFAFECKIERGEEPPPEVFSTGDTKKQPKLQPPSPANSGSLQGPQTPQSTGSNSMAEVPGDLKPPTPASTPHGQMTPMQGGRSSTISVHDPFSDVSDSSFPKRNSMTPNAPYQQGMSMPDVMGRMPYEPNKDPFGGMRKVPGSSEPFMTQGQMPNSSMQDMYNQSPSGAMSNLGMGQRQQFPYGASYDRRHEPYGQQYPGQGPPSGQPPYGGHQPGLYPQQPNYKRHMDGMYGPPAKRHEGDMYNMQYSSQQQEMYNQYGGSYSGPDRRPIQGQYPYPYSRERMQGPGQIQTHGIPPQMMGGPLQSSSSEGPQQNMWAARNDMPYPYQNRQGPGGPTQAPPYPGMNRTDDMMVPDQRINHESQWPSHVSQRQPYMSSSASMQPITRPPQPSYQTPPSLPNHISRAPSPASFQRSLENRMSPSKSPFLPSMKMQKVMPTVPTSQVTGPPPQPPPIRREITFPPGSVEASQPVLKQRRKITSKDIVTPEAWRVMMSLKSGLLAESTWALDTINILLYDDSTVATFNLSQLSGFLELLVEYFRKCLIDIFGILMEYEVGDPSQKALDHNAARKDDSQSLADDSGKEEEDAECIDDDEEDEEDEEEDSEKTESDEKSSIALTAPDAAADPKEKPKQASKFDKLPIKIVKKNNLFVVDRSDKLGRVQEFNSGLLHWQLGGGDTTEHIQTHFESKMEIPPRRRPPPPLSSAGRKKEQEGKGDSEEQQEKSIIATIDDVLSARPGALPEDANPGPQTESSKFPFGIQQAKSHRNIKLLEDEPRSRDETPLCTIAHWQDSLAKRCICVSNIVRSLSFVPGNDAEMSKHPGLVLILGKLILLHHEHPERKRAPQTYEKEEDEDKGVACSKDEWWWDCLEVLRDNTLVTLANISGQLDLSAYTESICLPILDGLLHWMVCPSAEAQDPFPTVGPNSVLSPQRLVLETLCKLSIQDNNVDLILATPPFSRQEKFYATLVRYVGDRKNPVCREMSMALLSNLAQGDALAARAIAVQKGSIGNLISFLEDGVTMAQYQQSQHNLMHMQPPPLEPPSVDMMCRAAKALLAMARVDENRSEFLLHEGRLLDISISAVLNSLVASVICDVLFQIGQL
UniProt P51531: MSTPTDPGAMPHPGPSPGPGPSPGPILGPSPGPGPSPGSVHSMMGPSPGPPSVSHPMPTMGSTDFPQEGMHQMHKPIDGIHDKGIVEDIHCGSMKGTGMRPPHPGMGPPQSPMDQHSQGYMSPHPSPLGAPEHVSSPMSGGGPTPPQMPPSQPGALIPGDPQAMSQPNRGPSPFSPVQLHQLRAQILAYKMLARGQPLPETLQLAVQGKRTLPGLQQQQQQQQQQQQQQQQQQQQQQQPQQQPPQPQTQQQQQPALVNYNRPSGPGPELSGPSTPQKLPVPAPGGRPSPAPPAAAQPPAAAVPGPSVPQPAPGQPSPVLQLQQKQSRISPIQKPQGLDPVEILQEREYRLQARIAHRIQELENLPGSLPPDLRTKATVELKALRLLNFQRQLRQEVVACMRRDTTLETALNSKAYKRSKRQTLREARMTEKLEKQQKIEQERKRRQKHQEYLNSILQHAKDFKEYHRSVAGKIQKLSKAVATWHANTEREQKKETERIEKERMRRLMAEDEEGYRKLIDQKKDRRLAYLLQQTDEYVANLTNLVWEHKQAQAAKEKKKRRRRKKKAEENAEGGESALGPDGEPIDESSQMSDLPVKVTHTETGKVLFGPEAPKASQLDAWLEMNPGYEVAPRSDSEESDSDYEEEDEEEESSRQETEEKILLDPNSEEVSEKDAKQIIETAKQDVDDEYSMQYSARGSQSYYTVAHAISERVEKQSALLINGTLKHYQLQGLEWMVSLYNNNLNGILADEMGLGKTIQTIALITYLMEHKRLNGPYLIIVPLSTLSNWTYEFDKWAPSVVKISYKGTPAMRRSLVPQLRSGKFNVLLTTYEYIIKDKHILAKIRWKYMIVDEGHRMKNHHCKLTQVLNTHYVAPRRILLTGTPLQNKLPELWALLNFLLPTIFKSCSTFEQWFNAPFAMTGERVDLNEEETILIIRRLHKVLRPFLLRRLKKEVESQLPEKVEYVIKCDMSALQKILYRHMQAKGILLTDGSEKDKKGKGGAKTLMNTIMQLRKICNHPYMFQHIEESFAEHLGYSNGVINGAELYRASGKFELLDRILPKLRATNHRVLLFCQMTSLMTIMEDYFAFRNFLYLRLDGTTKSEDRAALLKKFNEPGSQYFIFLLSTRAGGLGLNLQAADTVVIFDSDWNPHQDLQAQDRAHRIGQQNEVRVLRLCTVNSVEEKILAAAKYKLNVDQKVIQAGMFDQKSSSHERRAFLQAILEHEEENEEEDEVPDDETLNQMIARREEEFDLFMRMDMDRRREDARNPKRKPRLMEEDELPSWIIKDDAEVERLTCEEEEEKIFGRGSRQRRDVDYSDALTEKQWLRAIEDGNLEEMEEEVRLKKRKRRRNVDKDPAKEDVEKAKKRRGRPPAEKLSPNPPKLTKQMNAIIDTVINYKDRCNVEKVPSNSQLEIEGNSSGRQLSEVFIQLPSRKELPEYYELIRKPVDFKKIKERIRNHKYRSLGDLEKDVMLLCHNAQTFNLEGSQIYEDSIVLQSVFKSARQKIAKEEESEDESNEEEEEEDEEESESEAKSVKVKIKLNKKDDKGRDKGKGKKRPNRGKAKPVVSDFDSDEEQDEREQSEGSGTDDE
UniProt P51532: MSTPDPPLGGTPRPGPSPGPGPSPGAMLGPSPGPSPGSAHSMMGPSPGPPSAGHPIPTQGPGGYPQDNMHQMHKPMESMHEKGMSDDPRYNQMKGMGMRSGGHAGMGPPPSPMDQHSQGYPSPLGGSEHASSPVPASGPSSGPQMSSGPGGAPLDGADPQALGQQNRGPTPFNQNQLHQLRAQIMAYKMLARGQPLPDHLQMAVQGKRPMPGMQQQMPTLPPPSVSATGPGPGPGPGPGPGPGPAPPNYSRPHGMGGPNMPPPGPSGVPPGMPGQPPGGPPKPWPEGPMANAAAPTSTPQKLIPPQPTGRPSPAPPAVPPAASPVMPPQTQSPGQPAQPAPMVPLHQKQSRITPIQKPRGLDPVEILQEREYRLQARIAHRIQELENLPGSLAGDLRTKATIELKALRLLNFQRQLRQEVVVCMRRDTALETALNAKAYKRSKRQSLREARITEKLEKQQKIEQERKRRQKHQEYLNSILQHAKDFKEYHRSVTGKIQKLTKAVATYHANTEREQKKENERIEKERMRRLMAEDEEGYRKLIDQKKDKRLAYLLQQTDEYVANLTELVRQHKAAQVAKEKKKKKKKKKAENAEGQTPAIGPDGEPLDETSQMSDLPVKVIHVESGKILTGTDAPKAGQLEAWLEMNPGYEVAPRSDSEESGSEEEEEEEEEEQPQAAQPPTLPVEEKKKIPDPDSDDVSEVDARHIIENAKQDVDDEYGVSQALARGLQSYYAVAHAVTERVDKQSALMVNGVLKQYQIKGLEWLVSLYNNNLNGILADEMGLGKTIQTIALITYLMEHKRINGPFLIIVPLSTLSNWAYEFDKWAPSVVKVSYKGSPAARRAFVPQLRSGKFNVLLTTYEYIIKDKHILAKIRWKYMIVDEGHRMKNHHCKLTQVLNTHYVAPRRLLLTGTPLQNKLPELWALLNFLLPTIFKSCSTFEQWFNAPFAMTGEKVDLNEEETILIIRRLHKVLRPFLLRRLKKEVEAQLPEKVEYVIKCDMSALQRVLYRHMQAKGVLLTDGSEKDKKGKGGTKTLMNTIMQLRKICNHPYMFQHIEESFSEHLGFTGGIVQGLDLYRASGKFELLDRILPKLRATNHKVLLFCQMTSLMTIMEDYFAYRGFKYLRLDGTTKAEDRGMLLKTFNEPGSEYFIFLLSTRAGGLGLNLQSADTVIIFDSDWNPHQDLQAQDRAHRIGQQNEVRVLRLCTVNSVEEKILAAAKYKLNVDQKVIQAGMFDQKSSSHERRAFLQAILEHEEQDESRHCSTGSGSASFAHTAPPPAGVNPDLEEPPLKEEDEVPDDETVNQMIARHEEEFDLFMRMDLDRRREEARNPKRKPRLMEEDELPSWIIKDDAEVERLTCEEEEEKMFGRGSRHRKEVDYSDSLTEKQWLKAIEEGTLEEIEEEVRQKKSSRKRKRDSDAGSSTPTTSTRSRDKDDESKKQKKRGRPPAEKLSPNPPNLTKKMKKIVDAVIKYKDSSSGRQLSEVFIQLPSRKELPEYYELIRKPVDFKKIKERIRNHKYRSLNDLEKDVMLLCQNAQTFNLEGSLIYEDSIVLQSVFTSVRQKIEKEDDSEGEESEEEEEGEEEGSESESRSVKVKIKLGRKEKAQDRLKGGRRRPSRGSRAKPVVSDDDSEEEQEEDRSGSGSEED

These are yes or no findings as the source states them, for the method shown. Binding seen in cells or lysates may run through a third protein. A yes stands for co-enrichment or nearness to the bait. Other partners may have been found. A no says only that the protein was not detected with the bait.

The target of this assay is ARID1B (human (endogenous in iPSC-derived cells)) (UniProt Q8NFD5). Briefly: affinity purification with mass spectrometry; immunoprecipitation of endogenous ARID1B (6 ug ARID1B antibody, Dynabeads Protein A, 3 h at 4 °C) from 1.5 mg dialysed nuclear extract of control cells at day 5 of iPSC-to-CNCC differentiation; washes with co-IP buffer (100 mM NaCl, 0.1% NP-40); glycine pH 3.0 elution; LC-MS/MS; control IP with beads only.
Consider SALL4 (from UniProt Q9UJQ4 1-1053), for which the binding result is given as “binds”. Consider SMARCA2 (from UniProt P51531 1-1590), for which the binding entry is listed as “no binding”.

SMARCA4 (from UniProt P51532 1-1647): the binding entry was “binds”.
